This passage reports mortality results from patent publication US20140350081A1, “INSECT G-COUPLED RECEPTORS USEFUL AS TARGETS FOR INSECTICIDES AND COMPOUNDS AND REAGENTS IDENTIFIED USING THE SAME” (priority 2011, published 2014).

This test deals with Ae. aegypti L3 larvae. The experiment in a line: whole plant or invertebrate. Particulars: Aedes aegypti.

Where two headings read alike, the source gives them in different places.

With `CN(C)CCOC(c1ccccc1)c1ccccc1` [Diphenhydramine], the mortality at 400 µM came out at 0% (0.5 h, read-out: percent mortality 0.5 hr); 10% (1 h, read-out: percent mortality 1 hr); 10% (2 h, read-out: percent mortality 2 hr); 0% (3 h, read-out: percent mortality 3 hr); 0% (4 h, read-out: percent mortality 4 hr); 10% (48 h, read-out: percent mortality 48 hr). Moreover, the mortality at 400 µM is, setting by setting: (72 h, read-out: percent mortality 72 hr) 0%; ([…], read-out: percent mortality […]) 0%.

As a reminder, the mortality is the share of the test organisms that died.
